Out of some 400,000 compounds screened, about 5,500 (1.4%) were called active. The shares of active, inactive and inconclusive entries below differ from those in the screen. The call rests on the fitted dose curve; in most records, active means well fitted cell-killing curve with a large enough effect; inconclusive means small, poorly fitted or top-dose-only effect, or effect the other way; inactive means flat fitted curve, though single readings scatter. Potencies of inconclusive entries are doubtful fits and often do not repeat.
Assay: qHTS assay for MDR1-selective chemotherapeutics: Primary screen using the parental adenocarcinoma cell KB-3-1; further: nearly all actives have a fitted effect of over 60% in size
Settings: KB-3-1 viability, CellTiter-Glo ATP luminescence, 72 h; series mostly up to 46.1 µM
How it was run: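 KB-3-1 parental drug-naive adenocarcinoma cells in DMEM/10% FBS, incubated 72 h at 37 C with pin-transferred compounds across a concentration series. Viability by CellTiter-Glo luminescence; concentration-response curves fitted after normalization.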
Potency means the concentration at half of the fitted maximal effect.

Compound | Potency
COc1ccc(/C=N/NC(=O)c2ccc(Br)cc2)cc1Cn1cc(Cl)cn1 | inconclusive: 0.461 µM [rising, full curve]
COc1ccc(C)cc1NC(=O)CNc1ccc(C(C)=O)cc1 | inconclusive: 29.1 µM [cytotoxic, single point]
O=C(NCC(c1cccnc1)N1CCN(c2ccc(F)cc2)CC1)c1ccco1 (stereo unspecified) | inconclusive: 29.1 µM [cytotoxic, single point]
COc1ccccc1C(=O)Nc1nc2cc3c(cc2s1)OCCO3 | inconclusive: 16.4 µM [cytotoxic, single point]
COc1ccccc1/C=N/NC(=O)C(=O)Nc1ccccc1OC(F)(F)C(F)F | inactive
CCOC(=O)C1(CCc2ccccc2)CCN(Cc2nccn2CC)CC1 | inactive
CCCCOc1ccc(C)cc1CN(CCO)CCO | inactive
Cc1cc(C(=O)Nc2ncc(C)s2)c2ccccc2n1 | inconclusive: 0.58 µM [rising, full curve]
COc1cc(NC(=O)CSc2nncn2C)c(C)cc1[N+](=O)[O-] | inconclusive: 0.0073 µM [cytotoxic, full curve]
COc1cccc(CN2CC(C(=O)NCc3ccc(C)o3)CCC2=O)c1 (stereo unspecified) | inactive
Cc1cc(C(=O)CSc2nc(N)cc(=O)[nH]2)c(C)n1CC1CCCO1 (stereo unspecified) | inconclusive: 29.1 µM [cytotoxic, single point]
CC(=O)Oc1ccc(C2=NN(c3ccccc3)C(c3ccccc3)C2)cc1 (stereo unspecified) | inconclusive: 23.1 µM [cytotoxic, single point]
CC(NC(=O)OC(C)(C)C)C(=O)NC(CCC(=O)OCc1ccccc1)C(N)=O (stereo unspecified) | inactive
CCCn1c(NCc2ccccc2NS(=O)(=O)c2ccc(C)cc2)nc2ccccc21 | inconclusive: 23.1 µM [cytotoxic, single point]
Cc1cccc(NC(=O)C(C)Sc2nc3ccccc3c(=O)n2CCCN2CCOCC2)c1 (stereo unspecified) | inconclusive: 20.6 µM [cytotoxic, single point]
Cc1cc(C(F)(F)F)n(-c2nc(C(=O)N/N=C/c3ccc(F)cc3)cs2)n1 | inconclusive: 18.4 µM [cytotoxic, single point]
CCc1nnc2c(NCc3ccccc3OC)nc3ccccc3n12 | inactive
CCCC(=O)N/C(N)=N/c1nc(C)c2cc(C)ccc2n1 | active: 18.4 µM
COCCNC(=O)C1(C)CCCN(C(=O)c2ccccc2F)C1 (stereo unspecified) | inactive
COc1cccc(C=NNC(=O)c2ccncc2)c1O | active: 20.6 µM
CCOc1cc(/C=C(\C#N)c2nc(-c3cccs3)c(NC(C)=O)s2)ccc1O | active: 8.2 µM
CSc1nccc(-c2nn(-c3ccc(C)cc3)ccc2=O)n1 | active: 5.17 µM
Cc1ccc(NC(=O)Cn2c(=O)n(CCCCCC(=O)NCc3ccc(F)cc3)c(=O)c3sccc32)c(C)c1 | inactive
COc1ccc(CCC(=O)NO)cc1 | inactive

Five entries from above, as tab-separated lines.
Compound	Potency
Cc1cc(C(=O)CSc2nc(N)cc(=O)[nH]2)c(C)n1CC1CCCO1 (stereo unspecified)	inconclusive: 29.1 µM [cytotoxic, single point]
CC(=O)Oc1ccc(C2=NN(c3ccccc3)C(c3ccccc3)C2)cc1 (stereo unspecified)	inconclusive: 23.1 µM [cytotoxic, single point]
CC(NC(=O)OC(C)(C)C)C(=O)NC(CCC(=O)OCc1ccccc1)C(N)=O (stereo unspecified)	inactive
CCCn1c(NCc2ccccc2NS(=O)(=O)c2ccc(C)cc2)nc2ccccc21	inconclusive: 23.1 µM [cytotoxic, single point]
Cc1cccc(NC(=O)C(C)Sc2nc3ccccc3c(=O)n2CCCN2CCOCC2)c1 (stereo unspecified)	inconclusive: 20.6 µM [cytotoxic, single point]

Next entries.

Compound | Potency
Cc1ccc(OC2CCN(C(=O)C3CCC(=O)N(C4CC4)C3)CC2)cc1 (stereo unspecified) | inconclusive: 18.4 µM [cytotoxic, single point]
C=C(C)COc1ccc(-c2[nH]ncc2-c2ccc(Br)cc2)c(O)c1 | active: 5.8 µM
COc1cccc(/C=N/NC(=O)C(=O)N/N=C/c2cccc(OC)c2O)c1O | inconclusive: 11.6 µM [cytotoxic, single point]
CCc1ccc(-n2c(SCC(=O)c3ccc4c(c3)NC(=O)CO4)nc3ccccc3c2=O)cc1 | active: 20.6 µM
CCCN1CCN(CCCNC(=O)CCN2C(=O)COc3ccccc32)CC1 | inactive
NC(=S)NN=C1c2ccccc2-c2c(F)c(F)c(F)c(F)c21 | inconclusive: 29.1 µM [cytotoxic, single point]
CCCN1C(=O)/C(=C/c2ccc(N3CCCC3)c(C)c2)NC1=S | inconclusive: 29.1 µM [cytotoxic, single point]
COc1ccc2c(=O)cc(-c3ccncc3)oc2c1OC | inconclusive: 29.1 µM [cytotoxic, single point]
Cc1cc(NC(=O)C(C)SCC(=O)N(Cc2ccccc2)c2ccccc2)no1 (stereo unspecified) | inconclusive: 1.64 µM [cytotoxic, partial curve, poor fit]
CCCn1c(O)c(N=NC(=O)c2ccco2)c2ccccc21 | inconclusive: 18.4 µM [cytotoxic, single point]
O=c1c2cc(F)ccc2sn1-c1ccccc1Cl | inconclusive: 18.4 µM [cytotoxic, single point]
COc1ccc(C=O)c2[nH]c3c(Cl)ncnc3c12 | inactive
O=C(Nc1nc(-c2ccccc2)c(-c2ccccc2)o1)c1ccc(F)cc1 | inconclusive: 16.4 µM [cytotoxic, single point]
CC(C)(C)c1ccc(C(=O)c2c[nH]c(C(=O)NCCCn3ccnc3)c2)cc1 | inconclusive: 17.8 µM [cytotoxic, single point]
CN(O)/C=C1\C(=O)Nc2ccccc21 | inactive
Cc1ccccc1Cn1c(C)cc(C)c(C#N)c1=O | inconclusive: 20.6 µM [cytotoxic, single point]
COc1c(C)cc(S(=O)(=O)NCc2ccco2)c(C)c1C | inactive
COc1ccc(/C=C2\CCc3ccccc3C2=O)cc1Cn1cccn1 | inconclusive: 29.1 µM [cytotoxic, single point]
O=C(Cn1cc(C(F)(F)F)cc(Cl)c1=O)NCc1ccccc1 | inactive
S=C(Nc1ccc(Br)cc1)NC1CCN(Cc2ccccc2)CC1 | inconclusive: 16.4 µM [cytotoxic, single point]
CN(Cc1ccccc1)c1nc(N)c([N+](=O)[O-])c(Nc2cccc(F)c2)n1 | inconclusive: 11.2 µM [cytotoxic, partial curve]
S=c1nc[nH]c2c1ncn2-c1ccc(Cl)cc1 | inconclusive: 9.2 µM [cytotoxic, partial curve]
Cc1ccc(N2CC(C(=O)OCC(=O)Nc3c(C)cccc3C)CC2=O)cc1 (stereo unspecified) | inactive
Cc1ccc(NC(=O)N2CCCN(Cc3ccc(F)cc3)C2)cc1C | inconclusive: 29.1 µM [cytotoxic, single point]

Compound | Potency
CC(Sc1nc2ccccc2c(=O)n1CC1CCCO1)C(=O)N(C)Cc1ccccc1 (stereo unspecified) | inconclusive: 13 µM [rising, single point]
CCOC(=O)N1CCC(NC(=O)C2CCCN(Cc3nc(-c4cccc(Cl)c4)oc3C)C2)CC1 (stereo unspecified) | inconclusive: 14.6 µM [cytotoxic, partial curve, poor fit]
COc1ccc(C=C(C(=O)c2ccccc2)c2ccccc2)cc1 | inconclusive: 29.1 µM [cytotoxic, single point]
CCOC(=O)c1c(NC(=O)CN2CCN(C)CC2)sc(C(=O)Nc2ccccc2)c1C | inactive
CN(CCC#N)c1ccc(C=C(C#N)c2cccc(C(F)(F)F)c2)cc1 | inconclusive: 29.1 µM [cytotoxic, single point]
CC(CC(=O)OCC(=O)NCc1ccc(Cl)cc1)c1ccccc1 (stereo unspecified) | inconclusive: 9.2 µM [rising, partial curve]
O=C(NCC(c1ccco1)N1CCCC1)c1ccc(Cl)c(S(=O)(=O)N2CCc3ccccc32)c1 (stereo unspecified) | active: 2.31 µM
Cc1cccn2c(=O)c3cc(C(=O)NC(C)c4ccccc4)c(=N)n(CCCn4ccnc4)c3nc12 (stereo unspecified) | inconclusive: 16.4 µM [cytotoxic, single point]
CCCCCCN1C[C@H](O)[C@@H](n2cc(-c3ccc(F)cc3)nn2)C[C@@H]1c1ccc(Cl)cc1 | active: 18.4 µM
COc1ccc(N(CC(=O)Nc2ccccc2OC)S(=O)(=O)c2ccc(NC(C)=O)cc2)cc1 | active: 20.6 µM
O=C1NC(=NCc2ccccc2)S/C1=C/c1ccc(O)cc1 | inconclusive: 16.4 µM [cytotoxic, single point]
C#CCOCCOCCOCCNc1nc(N2CCN(C(=O)[C@H](CCCCN)n3cc(C(N)CC(C)C)nn3)CC2)nc(N2CCN(C(=O)[C@H](CCC(=O)O)n3cc(C(N)[C@H](C)CC)nn3)CC2)n1 (stereo partly specified) | inconclusive: 1.3 µM [rising, full curve]
O=C(CSc1cn(CCNC(=O)c2cccs2)c2ccccc12)NCc1ccccc1 | inconclusive: 23.1 µM [cytotoxic, single point]
Cc1cc(C)cc(NC(=O)c2ccc(NC(=O)c3ccco3)cc2)c1 | inactive
COc1cc2nc(SCC(=O)NCc3ccco3)n(Cc3ccc(Cl)cc3)c(=O)c2cc1OC | active: 10.3 µM
CN(CC1CCCO1)S(=O)(=O)c1ccc(C(=O)Nc2nnc(-c3ccccc3)o2)cc1 (stereo unspecified) | inconclusive: 20.6 µM [cytotoxic, single point]
C=CC[C@@H](CC(=O)N(CCO)Cc1ccccc1)C(=O)N[C@H](COC(=O)[C@@H](CC=C)Cc1ccc(F)cc1)c1ccccc1 | inconclusive: 29.1 µM [cytotoxic, single point]
O=C(NC(=S)NNC(=O)c1ccccc1O)c1cccs1 | inconclusive: 16.4 µM [cytotoxic, single point]
CCOC(=O)c1cccc(NC(=O)CSc2nc(N)cc(N)n2)c1 | inconclusive: 29.1 µM [cytotoxic, single point]
CCn1c(=O)cc(SCC(=O)Nc2ccc3c(c2)OCO3)c2ccccc21 | inactive
CCc1ccc(-c2nc3ccc(Br)cc3c(C(=O)O)c2C)s1 | inconclusive: 20.6 µM [cytotoxic, partial curve]
CCCCn1nnnc1C1(C)CCC(=O)N1CCCn1ccnc1 (stereo unspecified) | active: 13 µM
C[C@H](O)[C@@H]1CN2CCc3c([nH]c4ccc(-c5ccc6c(c5)OCO6)cc34)[C@@H]2C[C@@H]1N(C)C(=O)Nc1ccc(F)cc1 | active: 5.8 µM

— PubChem BioAssay AID1347075 (National Center for Advancing Translational Sciences (NCATS), 2019)
